The text below walks through data of US7442373B2 (priority 2003, dated 2008).

One data set concerns Bacillus anthracis Ames. Also on record: species or system Swiss-Webster mice. The conditions noted are these: mouse, in vivo.
The subject of data set [1] is Bacillus anthracis spores. The conditions noted are these: Hartley, guinea pig, in vivo.

In turn, `O=C(O)c1cn(C2CC2)c2cc(N3CCNCC3)c(F)cc2c1=O` [ciprofloxacin] registered an animals protected in the data set on Bacillus anthracis Ames of 60%. In data set [1], the “dose at which drug toxicity was noted” value is reported as 5.4 mg/day.
